# Some of the results follow. These are further read-outs of the screen, such as a control signal, another cell line or another target. No call is given for them. The list favours compounds with an active or inconclusive main result. The note in brackets gives the kind of curve behind each potency; many fits are weak.
# Assay: qHTS Assay to Find Inhibitors of Chronic Active B-Cell Receptor Signaling
# Settings: ABC-DLBCL IkBa-CBG/CBR reporter, luminescence ratio (green luciferase fused to IkBa over red control in TMD8 lymphoma cells), 4 h
# Outline: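 TMD8 human ABC-DLBCL cells with doxycycline-inducible IκBα–green luciferase fusion and unfused red luciferase, in 0.5% FBS medium; compounds up to 46 uM, 4 h at 37C. Green/red luminescence ratio, filter-overlap corrected, fitted to concentration-response curves.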
# [1] = measured here: CBR red luminescence, cell number
# [2] = measured here: IkBa-CBG green luminescence
SMILES,AC50 [1],AC50 [2]
Cc1ccccc1-n1c(SCc2ccc(Cl)cc2)nc2[nH]ncc2c1=O,"20 µM [falling, single point]",–
C=CCn1c(SCCNC(C)=O)nc2cc(-c3ccccc3)sc2c1=O,"1.12 µM [rising, full curve, poor fit]",–
O=C(O)CSc1ccc(NC(=O)Nc2ccccc2F)cc1,"25.1 µM [falling, partial curve]",–
Cc1ccc(N2C(=O)C(CC(=O)Nc3cccc(F)c3)N(C3CC3)C2=O)cc1 (stereo unspecified),"35.5 µM [rising, single point]",–
CC(=O)c1cccc(NC(=O)C2CCCN2S(=O)(=O)c2cccc3cccnc23)c1 (stereo unspecified),"8.2 µM [rising, partial curve]",–
O=C(COC(=O)C1CCC1)Nc1ccc(Oc2ccccc2)cc1,"4.61 µM [rising, full curve, poor fit]",–
Cc1ccc2nc3c(cc2c1)c(NC(=O)c1cccnc1)nn3C,"2.91 µM [rising, single point]",–
CCOC(=O)c1cccnc1SCC(=O)Nc1ccc(C)cc1C,"12.6 µM [rising, single point]",–
CCOc1ccc(NC(=O)Cn2nnc(-c3ccccc3NC(=O)c3cccs3)n2)cc1,"20.6 µM [rising, single point]",–
Oc1ccc(N=Nc2ccccc2)cc1,"0.708 µM [rising, full curve, poor fit]",–
Cc1ccc(NC(=O)CSc2nnc(-c3ccco3)c(-c3ccco3)n2)cc1,"35.5 µM [rising, single point]","22.4 µM [falling, single point]"
CC(C)(C)c1ccc(C(=O)Nc2ccc(NC(=O)C(=O)O)cc2)o1,"11.2 µM [rising, partial curve, poor fit]",–
CCOC(=O)N1CCN(c2c(F)cc3[nH]c(=S)[nH]c3c2Br)CC1,–,"20.6 µM [falling, partial curve, poor fit]"
CCOc1ccc(/C=N/Nc2nc(=O)[nH]nc2C)cc1OC,"14.1 µM [rising, partial curve]",–
CSc1ccc(/C=C/C(=O)c2ccc(O)cc2)cc1,"8.2 µM [falling, partial curve]",–
Cc1ccc(C)n1-c1c(C(=O)NN)cnn1-c1ccccc1,"12.6 µM [rising, single point]",–
Cc1ccc2nc(NC(=O)C3CCN(S(=O)(=O)c4cnc[nH]4)CC3)sc2c1,"23.1 µM [falling, partial curve]",–
O=C(Nc1ccc2oc(-c3ccccc3F)nc2c1)c1ncn[nH]1,"8.2 µM [rising, single point]",–
CCCc1cc(-c2nc(-c3ccc(Br)cc3)cs2)ccn1,"7.31 µM [rising, partial curve, poor fit]",–
C/C(=N\NC(=O)CCC(=O)Nc1ccccc1)c1cccs1,"18.4 µM [rising, partial curve, poor fit]",–
Cc1ncc(CN2CCCC(C(=O)Nc3ccc(-c4ccco4)cc3)C2)cn1 (stereo unspecified),"1 µM [falling, full curve]",–
Cc1ccc(C)c(N2CCN(CCCNC(=O)Cn3cc4c(n3)CCCCC4)CC2)c1,"23.1 µM [falling, single point]",–

# Shown as tab-separated lines: entries from further up.
SMILES	AC50 [1]	AC50 [2]
O=C(O)CSc1ccc(NC(=O)Nc2ccccc2F)cc1	25.1 µM [falling, partial curve]	–
Cc1ccc(N2C(=O)C(CC(=O)Nc3cccc(F)c3)N(C3CC3)C2=O)cc1 (stereo unspecified)	35.5 µM [rising, single point]	–
CC(=O)c1cccc(NC(=O)C2CCCN2S(=O)(=O)c2cccc3cccnc23)c1 (stereo unspecified)	8.2 µM [rising, partial curve]	–
O=C(COC(=O)C1CCC1)Nc1ccc(Oc2ccccc2)cc1	4.61 µM [rising, full curve, poor fit]	–
Cc1ccc2nc3c(cc2c1)c(NC(=O)c1cccnc1)nn3C	2.91 µM [rising, single point]	–

# More entries follow.

SMILES,AC50 [1],AC50 [2]
CCCCn1c(SCC(=O)NC(C)CC)nc2ccc(N3CCOCC3)cc2c1=O (stereo unspecified),"15.8 µM [falling, single point]",–
CCOC(=O)/C(N=Nc1c(C)n(C)n(-c2ccccc2)c1=O)=C(\C)O,"0.231 µM [rising, full curve, poor fit]",–
CC1CCCCC1NC(=O)CN1c2cccc3cccc(c23)S1(=O)=O (stereo unspecified),"2.59 µM [rising, partial curve, poor fit]",–
CCOC(=O)C(C)Oc1cccc2c(=O)n(CC(=O)NCCc3ccc(OC)c(OC)c3)ccc12 (stereo unspecified),"23.1 µM [rising, single point]",–
Cc1cc(C(=O)N/N=C/C=C/c2ccc([N+](=O)[O-])cc2)n[nH]1,"35.5 µM [falling, single point]",–
O=S(=O)(Nc1nc2ccc(S(=O)(=O)N3CCCCC3)cc2s1)c1ccccc1,"1.84 µM [falling, partial curve]",–
COc1ccc(-c2csc(N(C)C(=O)c3cccs3)n2)cc1,"0.794 µM [rising, partial curve, poor fit]",–
Cc1cc(C)c(S(=O)(=O)/N=C2/C=C(SCC(=O)O)C(=O)c3ccccc32)cc1C,"20 µM [falling, single point]",–
CCCCNC(=O)c1cccc(C(=O)NCCCC)c1,"18.4 µM [rising, single point]",–
COC1(C2=NCCN2)COc2ccccc2O1 (stereo unspecified),"20.6 µM [rising, single point]",–
O=c1c2ccccc2nc(-c2ccc(Cl)c(Cl)c2)n1O,"16.4 µM [falling, partial curve, poor fit]",–
CC(=O)Nc1ccc(C(=O)CSc2nccc(=O)[nH]2)cc1,"10 µM [falling, partial curve, poor fit]",–
CC1CCCCN1CCNC(=O)c1ccc2c(c1)N(Cc1ccccc1F)C(=O)c1ccccc1S2=O (stereo unspecified),"11.2 µM [falling, partial curve, poor fit]",–
COc1ccc(/C=N/Nc2nc(Nc3ccccc3)nc(N3CCCC3)n2)cc1,"10 µM [falling, partial curve]",–
CC1=CC=CC2=NC(=O)CC(C)(C(=O)N(CC(=O)NC3CCCC3)c3ccccc3C)N12 (stereo unspecified),"1.03 µM [falling, full curve, poor fit]",–
COc1cccc(NC(=O)c2cccc(OC)c2OC)c1,"6.51 µM [rising, single point]",–
COC(=O)C(NC(=O)CCc1c(C)nc2c(c(C)nn2-c2ccccc2)c1C)C(C)C (stereo unspecified),"35.5 µM [falling, single point]",–
Cc1ccc(C(=O)NNC(=O)c2ccccc2OCc2c(C)noc2C)cc1,"4.61 µM [rising, partial curve]",–
C=CCN(CC=C)S(=O)(=O)c1ccc(NC(=S)NC(=O)/C=C/c2ccccc2)cc1,"0.708 µM [rising, full curve]",–
CC(C)Cc1csc(NC(=O)c2ccc(Br)cc2)c1C(=O)O,"0.316 µM [falling, full curve]",–
NS(=O)(=O)c1ccc(CCNC(=O)C2CCC(CNS(=O)(=O)c3ccc(Br)s3)CC2)cc1 (stereo unspecified),"14.1 µM [rising, single point]",–
CC[C@@]12C(=O)N(c3cccc(Cl)c3)C(=O)N1[C@H](c1cccc(C)c1)[C@@H]1C(=O)N(Cc3ccccc3)C(=O)[C@@H]12,"13 µM [falling, partial curve, poor fit]",–

SMILES,AC50 [1],AC50 [2]
Cn1c(C(=O)NCc2ccccn2)cc2c(=O)n(C)c3ccccc3c21,"6.51 µM [falling, single point]",–
COc1ccc(Cc2nc3ccc(C(=O)NCCc4ccccn4)cc3o2)cc1OC,"22.4 µM [falling, partial curve]",–
CCOc1cccc(OCCOCCn2cnc3ccccc3c2=O)c1,"0.00461 µM [falling, full curve, poor fit]",–
O=C(CSc1nc2ccccc2s1)Nc1ccc(N2CCOCC2)c(Cl)c1,"18.4 µM [rising, single point]",–
CC(=O)c1c(C)[nH]c(C(=O)NCCc2ccccc2)c1C,"14.1 µM [falling, single point]",–
Cc1cc2n(n1)SC(Nc1ccccc1)N2 (stereo unspecified),"35.5 µM [falling, single point]",–
Cc1ccccc1-c1nnc(-c2ccccc2)o1,"25.9 µM [falling, partial curve, poor fit]",–
O=C(CC1NCCc2ccccc21)Nc1ccc(Cl)cc1 (stereo unspecified),"8.91 µM [falling, partial curve]",–
CSc1cccc(NC(=S)N(C(C)C)C(C)c2ccccn2)c1 (stereo unspecified),"35.5 µM [rising, single point]",–
COc1ccccc1Cn1c(=S)[nH]c2cc(C(=O)NCc3cccnc3)ccc2c1=O,"11.2 µM [falling, partial curve]",–
COc1cc(OC)cc(-c2c(-c3cccs3)c3cc(-c4ccc(OC)c(F)c4)ccc3n2C)c1,"29.1 µM [rising, single point]",–
O=C(CSc1nc2scc(-c3ccccc3)c2c(=O)[nH]1)NCCc1ccccc1,"35.5 µM [rising, single point]",–
CCN(CC)CCNC(=O)c1cc2c(=O)n(C)c3ccccc3c2n1C,"29.1 µM [falling, single point]",–
N#Cc1nc(-c2ccccc2)oc1N1CCN(C(=O)c2ccco2)CC1,"3.55 µM [rising, single point]",–
COc1cc(OC)cc(C(=O)NNC(=O)c2ccc3ccccc3n2)c1,"8.2 µM [falling, partial curve, poor fit]",–
O=C(COC(=O)CCS(=O)(=O)c1ccc(Cl)cc1)Nc1ncc(Cl)cc1Cl,"0.562 µM [falling, partial curve, poor fit]",–
CCOC(=O)CCCSc1nc2sc3c(c2c(=O)[nH]1)CCC3,"0.461 µM [falling, full curve]",–
COc1ccc(-c2nc(-c3ccc(Br)o3)no2)cc1OC,"2.91 µM [rising, single point]",–
O=C(CSCc1ccco1)c1cccs1,"35.5 µM [rising, single point]",–
COc1cccc(NC(=O)c2oc3ccccc3c2NC(=O)C2CC2)c1,"1.3 µM [falling, full curve, poor fit]","4.61 µM [rising, full curve, poor fit]"
